Here are results for two molecules from paper PMC2715101, “Dimerization of Translationally Controlled Tumor Protein Is Essential For Its Cytokine-Like Activity” (PLoS ONE, 2009).

For experiment [1], the target named is T1, Del-N35TCTP (residues 35-172) (rat) (UniProt P63029).
T1 sequence: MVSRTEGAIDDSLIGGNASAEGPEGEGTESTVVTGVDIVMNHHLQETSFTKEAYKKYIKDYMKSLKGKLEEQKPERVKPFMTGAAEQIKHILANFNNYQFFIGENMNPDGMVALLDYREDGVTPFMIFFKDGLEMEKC
Put plainly: cross-linking; sulfhydryl crosslinkers BMOE (five-fold molar excess, 2 h) or BM(PEO)3 (five-fold molar excess, 1 h), room temperature, proteins first reduced with 20 mM DTT; each protein alone and their 1/2:1/2 molar mixture; reducing SDS-PAGE; both purified.

Experiment [2] addresses Del-C112TCTP (residues 1-112) (rat) (UniProt P63029). Put plainly: non-reducing SDS-PAGE; purified proteins boiled with or without β-ME, 15% gel, coomassie brilliant blue; dimer by intermolecular disulfide bond; both purified.

Results are given in words; binding and its absence hold for the method and conditions named.

B1: rat recombinant TCTP (RrTCTP) (protein, UniProt P63029 1-172)
chain: MIIYRDLISHDELFSDIYKIREIADGLCLEVEGKMVSRTEGAIDDSLIGGNASAEGPEGEGTESTVVTGVDIVMNHHLQETSFTKEAYKKYIKDYMKSLKGKLEEQKPERVKPFMTGAAEQIKHILANFNNYQFFIGENMNPDGMVALLDYREDGVTPFMIFFKDGLEMEKC
As to B1, the binding result in experiment [1] is on record as “no binding”.

B2: Del-C112TCTP (residues 1-112) (domain or fragment, UniProt P63029 1-112)
chain: MIIYRDLISHDELFSDIYKIREIADGLCLEVEGKMVSRTEGAIDDSLIGGNASAEGPEGEGTESTVVTGVDIVMNHHLQETSFTKEAYKKYIKDYMKSLKGKLEEQKPERVK
For the molecule B2, the binding result in experiment [2] is “no binding”.
